At least one compound was matched to its structure with a doubt left.
Experiments:
[1] = test system: patients with PV; settings: RESPONSE trial; PV patients not responding or intolerant to hydroxyurea; 2.8 with other therapies; cited from earlier work
[2] = test system: Jak2^WT and Jak2^V617F mice; experiment: Venous stenosis model: partial ligation of the inferior vena cava; format: in vivo, mouse; settings: thrombi at 4 hours after IVC stenosis, vs vehicle
Method: Sections were allowed to come to room temperature, before rinsing in PBS with 0.1% Tween 20 (PBST). Sections were blocked for 1 hour at room temperature with 10% FBS in PBST in a humidified chamber. Sections were incubated in the same chamber overnight at 4° C. with the primary antibodies described above against Ly6G and H3^cit in 10% FBS in PBST. Slides were rinsed in PBST before incubating with the secondary antibody under the same conditions as used for the primary antibody (goat anti-rat Ig (IgG) (Alexa555, 1.5 μg/mL) or donkey anti-rabbit IgG (Alexa647, 1.5 μg/mL). After a further wash in PBST sections were stained with DAPI and mounted as described above. Sections were visualized using Axiolmager D1 (Carl Zeiss Microscopy) and images taken using Axiocam MRc Camera (Carl Zeiss Microscopy). Zen software 2.3 (version 13) was used to analyze images. For the final images used in the figures, Alexa647 was represented using green.
After bone marrow harvest, c-Kit positive marrow cells were obtained from VavCre/Jak2^V617F KI mice using CD117 Microbeads according to manufacturer's instructions (Miltenyi Bitotec).
DNase 1 (Pulmozyme, Genentech) was diluted in sterile saline and injected immediately after surgery (50 μg intraperitoneally and 10 μg intravenously via tail vein). […] Mice were assessed for thrombosis at 4 hours.

[3] = test system: human neutrophils from healthy controls; experiment: NET formation in human neutrophils with ex vivo ruxolitinib pre-treatment; format: cell-based; settings: normal neutrophils incubated in vitro with ruxolitinib (300 nM, 150 min); PMA 10 nM stimulation

N#CC[C@H](C1CCCC1)n1cc(-c2ncnc3[nH]ccc23)cn1 [Ruxolitinib]
Rate of thromboembolic events [1]: 1.2 per 100 patient years
Neutrophil content within the thrombi ([2]; p=0.001): significantly reduced
Amount of H3^cit within the thrombi ([2]; p=0.009): significantly reduced
NET formation in normal neutrophils [3]: decreased
